Data reported in PubChem BioAssay AID528 (NMMLSC, 2006).
In all, about 24,000 compounds went through this assay and fewer than 10 were called active. Inconclusive means that the source gave no clear call. Such entries were picked first, then a sample of the others.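 The calls were made as follows: active = fluorescent ligand binding to cells raised by more than 40% of the manganese-induced maximum; inconclusive = compound's own fluorescence above 85% of the ligand control signal; inactive = the rest.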

The chains behind the UniProt entries cited, without tags or fusion partners.
UniProt P13612, whole entry, looked up: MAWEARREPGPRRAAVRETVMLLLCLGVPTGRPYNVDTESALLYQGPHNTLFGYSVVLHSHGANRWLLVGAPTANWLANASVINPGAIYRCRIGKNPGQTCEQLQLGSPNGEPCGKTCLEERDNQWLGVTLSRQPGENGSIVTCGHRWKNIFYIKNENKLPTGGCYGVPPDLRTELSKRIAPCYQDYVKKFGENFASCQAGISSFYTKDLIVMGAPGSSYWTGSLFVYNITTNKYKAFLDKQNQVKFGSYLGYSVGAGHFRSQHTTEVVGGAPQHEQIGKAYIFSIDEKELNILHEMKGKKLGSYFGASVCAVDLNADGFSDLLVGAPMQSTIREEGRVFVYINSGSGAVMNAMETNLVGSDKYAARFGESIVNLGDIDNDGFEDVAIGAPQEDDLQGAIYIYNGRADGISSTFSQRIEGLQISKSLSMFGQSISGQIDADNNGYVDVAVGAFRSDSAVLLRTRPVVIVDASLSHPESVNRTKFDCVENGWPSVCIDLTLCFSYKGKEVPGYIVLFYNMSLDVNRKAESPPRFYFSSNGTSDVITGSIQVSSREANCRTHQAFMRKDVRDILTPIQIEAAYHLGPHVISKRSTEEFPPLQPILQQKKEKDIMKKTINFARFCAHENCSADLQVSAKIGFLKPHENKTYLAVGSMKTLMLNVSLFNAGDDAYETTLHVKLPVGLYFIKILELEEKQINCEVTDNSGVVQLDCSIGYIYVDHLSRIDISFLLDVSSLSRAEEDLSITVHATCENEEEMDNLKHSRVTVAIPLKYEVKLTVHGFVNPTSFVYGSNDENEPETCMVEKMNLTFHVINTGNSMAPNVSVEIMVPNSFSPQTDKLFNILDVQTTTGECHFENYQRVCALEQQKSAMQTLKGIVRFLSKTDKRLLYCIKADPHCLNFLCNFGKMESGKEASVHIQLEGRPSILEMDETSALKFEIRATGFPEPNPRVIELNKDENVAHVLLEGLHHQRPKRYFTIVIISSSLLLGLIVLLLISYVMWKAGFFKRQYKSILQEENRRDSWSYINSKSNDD

Target: Integrin alpha-4 (Homo sapiens) (UniProt P13612)
Experiment: enhancers of LDV-FITC binding to VLA-4 integrin, primary screen, Jurkat cells, flow cytometry (AID 528);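 as to activation: 0% = ligand binding without compound and 100% = manganese-stimulated maximal binding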
Details: stronger effect = higher value, screened at 10 µM (by protocol)

| SMILES | activation |
| --- | --- |
| COc1cc(-c2nc(-c3ccc(Br)o3)no2)cc(OC)c1OC | inconclusive |
| CC1CCc2nc(N)c(C#N)c(-c3cccnc3)c2C1 (configuration not stated) | inconclusive |
| Cc1cccc(-n2c(SCc3cc(=O)n4ccsc4n3)nc3ccccc32)c1 | inconclusive |
| O=C(O)c1cc(-c2cccs2)nc2cc3c(cc12)OCCO3 | inconclusive |
| CCOC(=O)CNS(=O)(=O)c1c(C)noc1C | inconclusive |
| Cc1ccccc1-n1c(=O)c2ccccc2n2nnnc12 | inconclusive |
| O=C(c1ccccc1)c1ccc2nc(N3CCCCC3)c3nncn3c2c1 | inconclusive |
| Cc1ccc(-n2c(C)nc3c(cnn3-c3ccc(F)cc3)c2=O)cc1 | inconclusive |
| CN(C)C(=O)c1nnc(Cc2ccc(Cl)cc2)o1 | inconclusive |
| Fc1ccccc1N1CCN(c2nc3ccccc3n3nnnc23)CC1 | inconclusive |
| CCOC(=O)C1CCN(Cc2ccc(F)c(Br)c2)CC1 | inconclusive |
| COc1ccc(N2CSC3=C(C#N)C(c4cccc(OC)c4OC)CC(=O)N3C2)cc1 (configuration not stated) | inconclusive |
| CC1=C(C(N)=O)C(c2ccccc2)n2nc(-c3cccs3)nc2N1 (configuration not stated) | inconclusive |
| COc1ccc(/C(O)=C(\C#N)c2nc3ccccc3n2C)cc1OC | inconclusive |
| Cc1cc(C(=O)Nc2ccc(S(=O)(=O)Nc3onc(C)c3C)cc2)cs1 | inconclusive |
| COCCn1c(=S)[nH]c2cc(C(=O)N3CCN(Cc4ccc5c(c4)OCO5)CC3)ccc2c1=O | inconclusive |
| CC1C(=O)C(C)C(c2ccc3c(c2)OCO3)NC1c1ccc2c(c1)OCO2 (configuration not stated) | inconclusive |
| COc1ccc(C2=NOC(C(=O)Nc3cc(Br)ccc3O)C2)cc1OC (configuration not stated) | inconclusive |
| Cc1ccc(C(c2sc3nc(C)nn3c2O)N2CCN(c3ccc(F)cc3)CC2)cc1 (configuration not stated) | inconclusive |
| CCOCCOC(=O)C1=C(C)Nc2ccc(C)cc2S1 | inconclusive |
| O=c1c2ccccc2nc2ccc(NCc3ccco3)nn12 | inconclusive |
| CCc1c(C)n([O-])c2c([n+]1=O)CCC2 | inconclusive |
| Nc1c(C(O)(C(F)(F)F)C(F)(F)F)ccc2ccccc12 | inactive: 7% |
| NC(=O)c1cc2ccc(O)cc2oc1=NCc1ccccc1 | inconclusive |
| O=c1c2ccccc2nnn1CSc1nc2cc(Cl)ccc2c(=O)n1Cc1ccco1 | inactive: 2% |

| SMILES | activation |
| --- | --- |
| CCOc1ccc(C(CC(=O)O)NC(=O)C23CC4CC(CC(C4)C2)C3)cc1 (configuration not stated) | inactive: -20% |
| O=C(c1nn2cccnc2c1Cl)N1CCN(c2ccccc2)CC1 | inactive: -2% |
| CCOc1cc(N2CCOCC2)c(OCC)cc1NC(=O)CSc1cccc[n+]1[O-] | inconclusive |
| Cc1ccc(S(=O)(=O)C(C#N)c2nc3ccccc3nc2OC(C)C)cc1 (configuration not stated) | inactive: 0.5% |
| COc1ccc(CCNC(=O)CN2C(=O)C3(OCCCO3)c3ccccc32)cc1OC | inactive: 1% |
| Cc1nc(NC(=O)C23CCC(C)(C(=O)O2)C3(C)C)sc1C (configuration not stated) | inactive: 2% |
| CCOC(=O)N1CCN(C(=O)Cn2ncn3nc(-c4cccs4)cc3c2=O)CC1 | inactive: -0.7% |
| c1ccc(-c2nc3c4ccccc4nc(N4CCN(c5ccccn5)CC4)n3n2)cc1 | inactive: -7% |
| CCn1ncc(C2=NOC(C(=O)Nc3c(C)nn(Cc4ccc(F)cc4)c3C)C2)c1C (configuration not stated) | inconclusive |
| CCC1c2ccc(C)n2CCN1C(=O)Nc1ccc(F)cc1 (configuration not stated) | inconclusive |
| c1ccc2c(c1)CCN(CCCNc1nc3ccccc3n3cnnc13)C2 | inconclusive |
| COc1cc(C2C(C(=O)Nc3ccccc3OC)=C(C)Nc3ncnn32)ccc1O (configuration not stated) | inconclusive |
| COc1ccc(-n2c(=O)c3c4c(sc3n3c(C)nnc23)CCCC4)cc1 | inactive: 3% |
| O=S(=O)(NCc1cn2ccsc2n1)c1ccc2c(c1)OCCO2 | inactive: 5.7% |
| COc1ccc(-c2nc(CN3CCC(C(=O)N4CCc5ccccc54)CC3)c(C)o2)cc1OC | inconclusive |
| CCC1Cc2c(nc3c4c(nc(N5CCOCC5)c(C#N)c24)NC(C)=N3)O1 (configuration not stated) | inactive: -2% |
| O=C(Nc1ccc2c(c1)OCO2)C(c1ccc(Cl)cc1)N1CCN(C(=O)c2ccco2)CC1 (configuration not stated) | inactive: -6.3% |
| Cn1c(C(=O)N2CCCC(C(=O)N3CCN(C(=O)c4ccco4)CC3)C2)cc2sccc21 (configuration not stated) | inconclusive |
| COc1ccc(S(=O)(=O)N2CCCN(CCC(=O)Nc3cccc(C(F)(F)F)c3)CC2)cc1 | inconclusive |
| CCOC(=O)CC(=O)CSc1nc(-c2cccnc2)cc(C)c1C#N | inconclusive |
| COc1cccc(-c2nc(-c3ccc(NC(=O)Cc4ccccc4OC)cc3)no2)c1 | inactive: -8% |
| CN(C)S(=O)(=O)c1ccc(C(=O)N2CCN=C2SCc2cccnc2)cc1 | inconclusive |
| CC1Cc2ccccc2N1C(=O)CCN1C(=O)C2C3C=CC(C3)C2C1=O (configuration not stated) | inconclusive |
| Cc1ccccc1NC(=O)NCCN1C(=O)C2C3C=CC(C3)C2C1=O (configuration not stated) | inconclusive |
| Cn1c2c(c(=O)n(C)c1=O)CN(CCCN1CCOCC1)CN2 | inconclusive |

| SMILES | activation |
| --- | --- |
| Cc1ccc2c(c1)N(CC(=O)NC1CCCCC1C)C(=O)CO2 (configuration not stated) | inactive: -3% |
| CCOc1ccccc1C1C(C(=O)Nc2ccccc2OC)=C(C)Nc2nc(CCCO)nn21 (configuration not stated) | inactive: 0% |
| CC(C)CCN(C)C1CCN(C(=O)Nc2c(F)cccc2F)CC1 | inactive: 8% |
| CC1(C)CC(=O)C2=C(C1)Nc1ccccc1N=C2 | inactive: -2% |
| CCOC(=O)N1CCN(C(=O)c2oc3ccc(S(=O)(=O)N4CCCCCC4)cc3c2C)CC1 | inconclusive |
| O=S(=O)(NCC(c1cccnc1)N1CCN(c2ccc(F)cc2)CC1)c1ccccc1 (configuration not stated) | inconclusive |
| COc1ccc(OC)c(-c2cc(C(=O)Nc3cc(C)n(Cc4ccc(Cl)cc4)n3)no2)c1 | inconclusive |
| O=C(CSc1nnc(-c2cnccn2)n1Cc1ccco1)c1ccc(Cl)cc1 | inconclusive |
| Cc1cc(Nc2cccc(Cl)c2)n2ncnc2n1 | inconclusive |
| O=C(CC1N=C2c3ccccc3N=C(SCc3ccccc3Cl)N2C1=O)NCc1ccco1 (configuration not stated) | inconclusive |
| CCC(NS(=O)(=O)c1c(C)[nH]c(=O)[nH]c1=O)C12CC3CC(CC(C3)C1)C2 (configuration not stated) | inconclusive |
| COc1ccc(C2C3=C(CC(C)(C)CC3=O)N(CCN3CCOCC3)C3=C2C(=O)CC(C)(C)C3)cc1 | inconclusive |
| COc1ccc2c(c1)CCc1c(C(=O)Nc3cc(C)n(Cc4ccc(Cl)cc4)n3)noc1-2 | inactive: 2% |
| COc1ccc(Cc2nnc(-c3cccc(C)c3)o2)cc1OC | inconclusive |
| O=C(Nc1ccc(OC(F)(F)F)cc1)C1CCCN(S(=O)(=O)c2cccnc2)C1 (configuration not stated) | inactive: -13% |
| COc1ccc(Cn2c(=O)[nH]c3cc(C(=O)NCc4ccc5c(c4)OCO5)ccc3c2=O)cc1 | inconclusive |
| CCCCOC(=O)n1c(SCC(=O)N(CC)CC)nc2ccccc21 | inactive: -3% |
| Cc1ccc(CNC(=O)CCS(=O)(=O)c2cc(Br)cc3c2N(C(=O)C2CC2)CC3)o1 | inactive: -2% |
| O=C1N=C(N2CCOCC2)CS1 | inactive: 5% |
| Cc1cccc(-c2nc(CSCC(=O)N3CCN(Cc4ccc5c(c4)OCO5)CC3)c(C)o2)c1 | inactive: 0% |
| CCc1nc(SCc2cc(Cl)ccc2OC)n[nH]1 | inactive: 2.7% |
| CSc1nc2c(c(=O)n1Cc1ccccc1)SC(C)C2 (configuration not stated) | inconclusive |
| COCCNC(=O)CS(=O)Cc1nc(-c2ccccc2C)oc1C (configuration not stated) | inconclusive |
| Cc1cc2cc(CNC(=O)Nc3ccccc3)ccc2n1C | inconclusive |
| O=C1c2ccccc2C(Nc2cccc(C(F)(F)F)c2)N1Cc1ccco1 (configuration not stated) | inactive: -18.5% |

4 entries from above in a different format.
Cc1ccc2c(c1)N(CC(=O)NC1CCCCC1C)C(=O)CO2 (configuration not stated)
  activation: inactive: -3%
CCOc1ccccc1C1C(C(=O)Nc2ccccc2OC)=C(C)Nc2nc(CCCO)nn21 (configuration not stated)
  activation: inactive: 0%
O=C(CC1N=C2c3ccccc3N=C(SCc3ccccc3Cl)N2C1=O)NCc1ccco1 (configuration not stated)
  activation: inconclusive
Cc1cccc(-c2nc(CSCC(=O)N3CCN(Cc4ccc5c(c4)OCO5)CC3)c(C)o2)c1
  activation: inactive: 0%

Carrying on.

| SMILES | activation |
| --- | --- |
| CNC(=O)c1ccsc1NC(=O)CN1C(=O)CCC1=O | inactive: 0% |
| O=S(=O)(NCC(c1cccnc1)N1CCN(c2ccccc2)CC1)c1cccs1 (configuration not stated) | inconclusive |
| CCOC(=O)/C(C#N)=C1\Nc2ccccc2N=C1N(CC(C)C)CC(C)C | inconclusive |
| Cc1ccccc1S(=O)(=O)Cc1ccc(C(=O)N2CCN(C3CCCCC3)CC2)o1 | inconclusive |
| Cc1c(C(=O)NC(C)C)oc2c1-c1[nH]ncc1CC2 | inconclusive |
| Cc1ccc(OC(=O)NC2CCS(=O)(=O)C2)cc1C (configuration not stated) | inactive: 2.5% |
| Cc1ccc(CNC(=O)CN(C)S(=O)(=O)c2cccc3cccnc23)cc1 | inactive: 2% |
| COCCOC(=O)C1=C(C)N=C2SCCC(=O)N2C1c1cccc(Br)c1 (configuration not stated) | inactive: -9% |
| COc1ccc(OCCSc2ncnc3nc[nH]c23)cc1 | inconclusive |
| O=C(C(Cc1ccccc1)n1cccc1)N1CCN(Cc2ccccc2)CC1 (configuration not stated) | inconclusive |
| CC(CCc1ccco1)NC(=O)Cn1ncc2c(=O)oc3ccccc3c21 (configuration not stated) | inconclusive |
| COC(=O)Cc1c(C)nc2nc[nH]n2c1=O | inconclusive |
| CC(c1nnc(SCC(=O)Nc2sccc2C#N)n1-c1ccc(Cl)cc1)N(C)C (configuration not stated) | inconclusive |
| Cc1ccc(-c2noc(CCC(=O)NCCN3CCc4ccccc4C3)n2)cc1 | inconclusive |
| O=C(CN1CCN(C(=O)c2ccco2)CC1)Nc1cc(C(F)(F)F)ccc1Cl | inconclusive |
| CCOC(=O)c1csc(Nc2nc3ccc(F)cc3s2)n1 | inconclusive |
| N#CCCN1CCN(S(=O)(=O)c2ccc(S(=O)(=O)NC3CCCC3)cc2)CC1 | inactive: 1.7% |
| CCOC(=O)C1C(=O)C=C(c2ccc(OC)cc2)CC1c1ccco1 (configuration not stated) | inconclusive |
| COc1cc2c(cc1OC)C(c1cc(OC)c(OC)c(OC)c1)NCC2 (configuration not stated) | inactive: 3.5% |
| Cc1ccccc1-c1nc(CN2CCC(C(=O)O)CC2)c(C)o1 | inactive: -2% |
| COc1ccc(N2CCN(CCNC(=O)c3cccn4c(=O)c5ccc(Cl)cc5nc34)CC2)cc1 | inactive: -1% |
| COc1ccc(C2c3c(oc4ccccc4c3=O)C(=O)N2c2ccccn2)cc1 (configuration not stated) | inconclusive |
